Source: patent publication US20250367313A1 (MULTITUDE, published 2025)

How the values were obtained:
[1] = molecular target: primate MUC18 (primate); assay: flow cytometry on cells expressing primate MUC18
[2] = molecular target: primate MUC18 (primate); assay: flow cytometry on A375 cells expressing primate MUC18
[3] = molecular target: primate MUC18 (primate); assay: flow cytometry on A375 cells expressing primate MUC18, FITC-A; single antibody concentration, not given

Measured: binding

B1: J253 (antibody, V domains shown)
VH: QVQLQQSGAELVKPGASVKLSCKASGYTFTSYDINWVRQRPEQGLEWIGWIFPGDGSTDYNEKFKGKATLTTDKSSSTAYMQLSRLTSEDSAVYFCARYHFFDNWGQGTTLTVSS
VL: DIVITQDELSNPVTSGESVSISCRSSKSLLYKDGKTYLSWFLQRPGQSPQLLIYLMSTRASGVSDRFSGSGSGTDFTLEISRVKAEDVGVYYCQQLVEYPYTFGGGTKLEIK
notes: also called anti-MUC18 antibody (J253)
binds: all assays above

Results are given in words; binding and its absence hold for the method and conditions named. Binding can be weak; no strength is given.
